Assay results taken from PubChem BioAssay AID651768 (National Center for Advancing Translational Sciences (NCATS), 2012).
The whole screen tested about 360,000 compounds, of which about 1,700 (0.47%) were called active. The shares of active, inactive and inconclusive entries below differ from those in the screen. Calls come from the whole dose curve; as a rule, active = well fitted inhibition curve with a large enough effect; inconclusive = small, poorly fitted or top-dose-only effect; inactive = no such curve, though single readings can be large or run the other way. Potencies beside an inconclusive call are fits to weak or partial responses and may not hold up.

Chains of the proteins cited; added tags and fusions are not shown.
UniProt Q14191, whole entry, looked up: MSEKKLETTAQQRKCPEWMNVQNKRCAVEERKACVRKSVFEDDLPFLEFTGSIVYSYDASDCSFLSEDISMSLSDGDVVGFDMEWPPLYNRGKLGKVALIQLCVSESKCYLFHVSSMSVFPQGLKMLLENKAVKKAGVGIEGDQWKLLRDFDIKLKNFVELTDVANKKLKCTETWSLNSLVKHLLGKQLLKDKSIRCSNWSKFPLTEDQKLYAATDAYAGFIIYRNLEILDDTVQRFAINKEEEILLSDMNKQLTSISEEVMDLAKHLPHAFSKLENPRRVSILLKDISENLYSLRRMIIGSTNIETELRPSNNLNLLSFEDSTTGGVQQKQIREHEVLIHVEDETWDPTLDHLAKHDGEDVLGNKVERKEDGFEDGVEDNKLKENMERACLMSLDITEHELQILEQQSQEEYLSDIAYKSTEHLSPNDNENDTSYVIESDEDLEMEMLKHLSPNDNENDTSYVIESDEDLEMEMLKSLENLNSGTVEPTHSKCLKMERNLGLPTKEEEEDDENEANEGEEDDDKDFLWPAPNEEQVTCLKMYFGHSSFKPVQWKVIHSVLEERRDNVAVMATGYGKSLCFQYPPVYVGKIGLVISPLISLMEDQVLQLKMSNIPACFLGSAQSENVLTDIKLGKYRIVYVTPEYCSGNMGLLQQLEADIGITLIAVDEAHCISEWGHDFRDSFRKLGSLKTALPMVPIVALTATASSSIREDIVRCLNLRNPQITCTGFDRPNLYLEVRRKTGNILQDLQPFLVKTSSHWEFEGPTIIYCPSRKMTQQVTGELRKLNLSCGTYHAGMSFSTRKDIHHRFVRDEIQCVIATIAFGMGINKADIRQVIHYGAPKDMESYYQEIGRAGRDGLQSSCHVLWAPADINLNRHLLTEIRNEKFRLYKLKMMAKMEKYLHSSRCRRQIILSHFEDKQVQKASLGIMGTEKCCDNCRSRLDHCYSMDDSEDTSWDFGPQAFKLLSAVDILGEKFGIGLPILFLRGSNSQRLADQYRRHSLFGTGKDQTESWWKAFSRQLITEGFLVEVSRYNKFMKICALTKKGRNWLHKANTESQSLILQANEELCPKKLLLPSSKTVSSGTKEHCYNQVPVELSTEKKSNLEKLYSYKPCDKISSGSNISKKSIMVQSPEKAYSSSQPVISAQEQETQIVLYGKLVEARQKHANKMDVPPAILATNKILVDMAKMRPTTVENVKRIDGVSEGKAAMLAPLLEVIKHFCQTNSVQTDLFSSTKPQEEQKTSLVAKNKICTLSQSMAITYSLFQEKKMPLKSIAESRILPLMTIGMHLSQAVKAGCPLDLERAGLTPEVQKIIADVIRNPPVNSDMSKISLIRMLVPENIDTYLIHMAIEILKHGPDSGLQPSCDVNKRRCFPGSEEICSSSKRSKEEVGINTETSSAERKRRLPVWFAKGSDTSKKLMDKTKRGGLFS

What follows are compounds tested against Bifunctional 3'-5' exonuclease/ATP-dependent helicase WRN (Homo sapiens) (UniProt Q14191) (assay: qHTS for Inhibitors of WRN Helicase). Conditions: WRN helicase unwinding, fluorescent forked duplex, kinetic; activity change, negative = inhibition: at 114 µM (top of the series) unless noted.
Outline: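 Screening of the MLSMR collection measured strand separation of a quenched forked DNA duplex (100 nM) by 20 nM WRN with 2 mM ATP, all final. Compounds were preincubated with enzyme 15 min at room temperature.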
% is set by controls: 0 for no effect and ±100 for the full control effect; potency is the fitted concentration of half-maximal effect.
Note: nearly all actives have a fitted effect of over 55% in size.

Row | SMILES | Potency | activity change, negative = inhibition
1 | COc1ccc(/C(N)=N/O)cc1O | inconclusive: 31.6 µM [inhibitor, single point] | 
2 | O=C(C[n+]1cc(Br)cc2ccccc21)c1ccccc1 |  | inactive: -2.69%
3 | N#C/C(=C\c1ccc(O)c([N+](=O)[O-])c1)c1nc2ccccc2s1 | active: 31.6 µM | 
4 | Cc1[nH]n(-c2ncc(-c3ccccc3)s2)c(=O)c1C(c1ccc(Br)cc1)C(C#N)C#N (configuration not stated) | inconclusive: 16.8 µM [inhibitor, partial curve] | 
5 | COc1c(N2CCN(C(=S)NCc3ccccc3)C(C)C2)c(F)cc2c(=O)c(C(=O)O)cn(C3CC3)c12 (configuration not stated) | inconclusive: 100 µM [inhibitor, single point] | 
6 | CC(C)c1ccc2c(c1)C1(NN=C(c3ccccc3)S1)C(=O)N2 (configuration not stated) | inconclusive: 20 µM [inhibitor, partial curve] | 
7 | O=C1C(=O)c2cccnc2-c2ncccc21 | active: 17.8 µM | 
8 | O=C(NC(=S)Nc1ccc(S(=O)(=O)N2CCCCC2)cc1)c1ccc(Cl)cc1 |  | inactive: -28%
9 | Cc1ccc(S(=O)(=O)N(C)c2ccc(OC(=O)COc3ccccc3)cc2)cc1 | inconclusive: 15.8 µM [inhibitor, single point] | 
10 | CC(C)c1ccc(CNc2ncccn2)cc1 | inconclusive: 17.8 µM [inhibitor, full curve] | 
11 | O=C(OCC(=O)N1CCC(Cc2ccccc2)CC1)c1cc(Cl)ccc1O | inconclusive: 89.1 µM [inhibitor, single point] | 
12 | CCOc1cccc(CNc2ccc(O)cc2)c1OCc1ccccc1Cl | inconclusive: 44.7 µM [inhibitor, partial curve] | 
13 | COc1ccc(CCNCC(=O)Nc2ccc(C)c(S(=O)(=O)N(C)C)c2)cc1 | inconclusive: 56.2 µM [inhibitor, partial curve] | 
14 | CCCNC(=S)N1CCC(NC(=O)c2cccc(C)c2)CC1 | inconclusive: 89.1 µM [inhibitor, single point] | 
15 | Cc1c(Cl)sn(-c2ccc(Cl)cc2)c1=O | active: 15.8 µM | 
16 | Cc1cc(NC(=O)COC(=O)COc2ccc3c4c(c(=O)oc3c2)CCC4)no1 | inconclusive: 79.4 µM [inhibitor, partial curve] | 
17 | CN(C)CCC(=O)c1ccc2c(c1)OCO2 | inconclusive: 31.6 µM [inhibitor, partial curve] | 
18 | CC1Cc2ccccc2N1Cc1cc(=O)n2ccsc2n1 (configuration not stated) |  | inactive: 4.68%
19 | COc1ccc(N2CC(C(=O)Nc3nnc(SCC(=O)NCc4ccco4)s3)CC2=O)cc1 (configuration not stated) | inconclusive: 22.4 µM [inhibitor, full curve] | 
20 | FC(F)(F)c1cccc(CNC2c3ccccc3-c3ccccc32)c1 | inconclusive: 44.7 µM [inhibitor, partial curve] | 
21 | C=C(C)CCC(C)N1CCC(n2nccc2NC(=O)CCOc2ccccc2)CC1 (configuration not stated) |  | inactive: -19.8%
22 | C=C(C)C(=O)Nc1ccc2c(c1)OCCOCCOCCO2 | inconclusive: 79.4 µM [inhibitor, partial curve] | 
23 | N=c1c(C(=O)NCc2ccco2)cc2c(=O)n3ccccc3nc2n1CCc1ccccc1 |  | inactive: -12.5%

Row | SMILES | Potency | activity change, negative = inhibition
24 | CC(/C=N/NC(=O)c1cc(-c2ccc3ccccc3c2)n[nH]1)=C\c1ccco1 | inconclusive: 56.2 µM [inhibitor, partial curve] | 
25 | CC(=O)C(C(C)=O)C(NC(=O)c1cccnc1)(C(F)(F)F)C(F)(F)F | active: 89.1 µM | 
26 | C#CCOCCOCCOCCNc1nc(N2CCN(C(=O)CCCCCCCCCCNC(=O)[C@H](CCCCN)n3cc(C[C@@H](C)CC)nn3)CC2)nc(N2CCN(C(=O)CCCCCCCCCCNC(=O)[C@H](CCCN=C(N)N)n3cc(C[C@@H](C)CC)nn3)CC2)n1 | active: 31.6 µM | 
27 | O=C1NC2c3c(Cl)sc(Cl)c3C(=O)C2O1 (configuration not stated) | active: 2.38 µM | 
28 | O=C(O)CCCCCN1C(=O)/C(=C/c2cn(-c3ccccc3)nc2-c2cccs2)SC1=S |  | inconclusive: -75.8% [inhibitor]
29 | CC(=O)c1cccc(NC(=O)CSc2ccc(-c3ccccn3)nn2)c1 |  | inactive: -8.29%
30 | COc1cccc(/C=N/Nc2nc3ccccc3n3cnnc23)c1O | inconclusive: 50.1 µM [inhibitor, partial curve] | 
31 | O=C(NCc1ccccn1)c1ccc(Cl)c(S(=O)(=O)Nc2ccccc2C(=O)NCc2ccccn2)c1 | inconclusive: 39.8 µM [inhibitor, single point] | 
32 | O=C(c1ccc2[nH]c3c(c2c1)CCCC3)N1CCN(c2ccc(F)cc2)CC1 | inconclusive: 10 µM [inhibitor, partial curve] | 
33 | O=C(COc1ccc(Br)cc1)Nc1ccc(C(=O)Nc2ccccc2C(=O)O)cc1 | inconclusive: 28.2 µM [inhibitor, single point] | 
34 | Cc1cnc(C(=O)OCC(=O)c2csc(N3CCCCC3)n2)cn1 | inconclusive: 26.7 µM [inhibitor, partial curve] | 
35 | CCCC(=O)NC(c1cccs1)c1cc([N+](=O)[O-])c2cccnc2c1O (configuration not stated) | inconclusive: 12.6 µM [inhibitor, partial curve] | 
36 | O=S(=O)([O-])CCC[n+]1c(SCCCS(=O)(=O)O)sc2ccc(Cl)cc21 | active: 35.5 µM | 
37 | Cn1c(=O)c2[nH]c(C(O)c3ccc(Cl)cc3)nc2n(C)c1=O (configuration not stated) | inconclusive: 28.2 µM [inhibitor, single point] | 
38 | Cc1ccc(NS(=O)(=O)c2cc([N+](=O)[O-])ccc2NNC(=S)Nc2cccc(Cl)c2)c(C)c1 | inconclusive: 79.4 µM [inhibitor, partial curve] | 
39 | CCOC(=O)C(=CNNc1ccccc1)C(=O)OCC | inconclusive: 3.16 µM [inhibitor, full curve, poor fit] | 
40 | Nc1nnnn1/N=C/c1ccccc1C(F)(F)F |  | inactive: -32.7%
41 | Cc1cc(-c2n[nH]c(=S)n2/N=C/C=C/c2ccco2)n[nH]1 | inconclusive: 56.2 µM [inhibitor, partial curve, poor fit] | 
42 | NC(=O)Cn1c(=O)n(Cc2ccco2)c(=O)c2c3c(sc21)CCCCC3 | inconclusive: 15 µM [inhibitor, partial curve] | 
43 | Cn1ncc2cc3c(Nc4ccc(Cl)cc4)cccc3nc21 | inconclusive: 50.1 µM [inhibitor, partial curve] | 
44 | Cc1ccc(N=Cc2cc(Cc3ccccc3Cl)cc([N+](=O)[O-])c2O)c(O)c1 | active: 28.2 µM | 
45 | CCCCOc1ccc(C2OC34CCCCC3C(C#N)(C#N)C2(C#N)C(=N)O4)cc1 (configuration not stated) | inconclusive: 50.1 µM [inhibitor, partial curve] | 
46 | CSc1nnc(-c2ccc(S(=O)(=O)N3CCCCC3)cc2)o1 | inconclusive: 89.1 µM [inhibitor, single point] | 

Row | SMILES | Potency | activity change, negative = inhibition
47 | COC(=O)c1ccc(C)c(NC(=O)CSc2sc3c(O)cc(=O)[nH]c3c2C#N)c1 | inconclusive: 5.62 µM [inhibitor, full curve, poor fit] | 
48 | COc1ccc(NC(=O)c2cc3c(=O)n(C)c4ccccc4c3s2)cc1OC |  | inactive: -5.05% [at 11.6 µM]
49 | Cc1c(CCC(=O)O)c(=O)oc2c(C)c(OCc3cc4c(cc3Cl)OCO4)ccc12 | inconclusive: 56.2 µM [inhibitor, partial curve] | 
50 | CN(C)CCC(=O)C(Cc1ccccc1)c1ccccc1 (configuration not stated) | active: 7.94 µM | 
51 | O=C(c1ccccc1)c1ccccc1N1C(=O)C=CC1=O | active: 12.6 µM | 
52 | CCN(CC)c1ccc(/C=C/c2cccc[n+]2C)c(OC)c1 | active: 79.4 µM | 
53 | CCc1ccccc1NC(=O)CSc1ccsc1[N+](=O)[O-] | inconclusive: 35.5 µM [inhibitor, partial curve] | 
54 | C/C(=N\Nc1nc2c(s1)CCCC2)c1ccc(Cl)cc1 | inconclusive: 20 µM [inhibitor, full curve] | 
55 | CCOC(=O)c1c(NC2=NS(=O)(=O)c3ccccc32)sc2c1CCC(C)C2 (configuration not stated) | inconclusive: 39.8 µM [inhibitor, single point] | 
56 | CCOC(=O)C1(C)NC(c2cccs2)C2C(=O)N(c3ccc(OC)cc3)C(=O)C21 (configuration not stated) | inconclusive: 89.1 µM [inhibitor, single point] | 
57 | Cn1cccc1Cc1nnc(SCC(=O)NCc2ccco2)n1CCc1ccccc1 | inconclusive: 44.7 µM [inhibitor, partial curve] | 
58 | CCOC(=O)c1c(NC(=O)CSc2nnc(-c3ccccc3C)n2C)sc(C(C)=O)c1C | inconclusive: 79.4 µM [inhibitor, partial curve] | 
59 | Cc1ccc(S(=O)(=O)Nc2ccccc2C(=O)OC(C)C(=O)Nc2ccc3ccccc3c2)cc1[N+](=O)[O-] (configuration not stated) | inconclusive: 10 µM [inhibitor, partial curve] | 
60 | COc1cccc(CNC(=O)[C@@H]2CCCN2C(=O)[C@@H]2CCCN2C(=O)OC(C)(C)C)c1 |  | inactive: 2.1%
61 | Brc1ccc(OCc2nnc(SCC3CCCCC3)o2)cc1 | inconclusive: 10 µM [inhibitor, partial curve] | 
62 | O=C(CSc1n[nH]c(-c2ccccc2)n1)c1ccc(O)c(O)c1 | active: 15.8 µM | 
63 | O=C(Nc1sc2c(c1C(=O)O)CCC2)c1ccccc1 | inconclusive: 26.7 µM [inhibitor, partial curve] | 
64 | CC1CN(S(=O)(=O)c2cc(C(=O)NC(C)c3cccnc3)ccc2Cl)CC(C)O1 (configuration not stated) | inconclusive: 35.5 µM [inhibitor, full curve, poor fit] | 
65 | COc1ccc(NC(=O)c2c(Cl)n(C)c3ccccc23)cc1 |  | inactive: -3.27%
66 | COc1cc(/C=C2/C(=O)NN(c3ccc(C)c(Cl)c3)C2=O)cc([N+](=O)[O-])c1O | inconclusive: 39.8 µM [inhibitor, partial curve] | 
67 | CC1CCc2c(sc(NC(=O)c3ccco3)c2C(=O)O)C1 (configuration not stated) | inconclusive: 89.1 µM [inhibitor, single point] | 
